Laboratory results as given in the supplement of paper PMC10735217.
Structures can show the parent of a compound that is named as a salt. The list shows a part of the results. Repeats in this data set agree poorly, so a single value says little.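 The human kidney-derived cells carry a stably integrated construct of eight TEAD-binding elements driving luciferase, read by luminescence in a drug-repurposing library screen. A compound counts as a hit when its signal is more than five robust Z scores above the plate mean.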

Tested on: HEK293A TEAD-LUC reporter
Experiment: TEAD-luciferase reporter activity (YAP activation), robust Z score vs plate; higher = stronger YAP/TEAD activation
Conditions: 24 h

Compound | TEAD-luciferase reporter activity (compound concentration: 200 nM) | TEAD-luciferase reporter activity (compound concentration: 2 uM) | TEAD-luciferase reporter activity (compound concentration: 10 uM)
C[C@@H](O)[C@H](NC(=O)[C@H]1CCCN1C(=O)[C@@H](N)CCCCN)C(=O)O | inactive: 4.59 | inactive: -0.649 | inactive: 2.18
O=C1C2C=C(c3ccccc3)CC1CCC2 (stereo unspecified) | inactive: -1.7 | inactive: -0.162 | inactive: -0.808
COc1nccc(-c2c(-c3ccc(F)cc3)ncn2C2CCNCC2)n1 | inactive: -2.09 | inactive: -0.729 | inactive: -0.761
COc1ccc([C@@H]2Cc3c(cccc3C(F)(F)F)N(CCN(C)C)C(=O)[C@@H]2OC(C)=O)cc1 | inactive: -1.14 | inactive: 0.715 | inactive: 0.25
CCOC(=O)CCc1nsnc1OCC(O)CNC(C)C (stereo unspecified) | inactive: -0.773 | inactive: -0.695 | inactive: -0.997
O=C(Cc1c(F)cccc1Cl)Nc1onc(-c2ccc(F)cc2)c1-c1ccncn1 | inactive: -1.18 | inactive: -1.18 | inactive: -1
CCCCN1CCC(NC(=O)c2c[nH]c3ncccc23)CC1 | inactive: -1.11 | inactive: -2.46 | inactive: -2.17
O=C1CCC[C@@H]2[C@H]3CCC[N+]4([O-])CCC[C@@H](CN12)[C@@H]34 (stereo partly specified) [Oxymatrine] | inactive: 0.607 | inactive: -2.12 | inactive: 2.26
Nc1cccc2c1CN(C1CCC(=O)NC1=O)C2=O (stereo unspecified) | inactive: -1.69 | inactive: -0.243 | inactive: 0.425
CC(C)(C)OC(=O)N[C@@H](Cc1ccccc1)[C@H](O)CNC[C@@H](O)[C@H](Cc1ccccc1)NC(=O)OC(C)(C)C | inactive: -1.15 | inactive: 0.036 | inactive: 1.44
CN(C)[C@@H]1C(=O)C(C(N)=O)=C(O)C2(O)C(=O)C3=C(O)c4c(O)ccc(Cl)c4[C@@H](O)[C@H]3C[C@@H]12 (stereo partly specified) [Demeclocycline (hydrochloride)] | – | inactive: -0.371 | –
CN(C)[C@@H]1C(=O)C(C(N)=O)=C(O)C2(O)C(=O)C3=C(O)c4c(O)ccc(Cl)c4[C@@H](O)[C@H]3C[C@@H]12 (stereo partly specified) [Demeclocycline] | inactive: -0.844 | – | inactive: 1.05
COc1cc(C(=S)N2CCOCC2)cc(OC)c1OC [tritiozine] | inactive: -0.0732 | inactive: -0.853 | inactive: 1.8
CC(C)Cc1ccc(-c2nc(-c3ccc(CN4CC(C(=O)O)C4)c(F)c3)no2)cc1 [S1p receptor agonist 1] | inactive: 2.46 | inactive: -1.53 | inactive: 1.44
NS(=O)(=O)c1ccc(NC(CC(c2ccccc2)S(=O)(=O)O)S(=O)(=O)O)cc1 (stereo unspecified) | inactive: -0.0857 | inactive: -0.339 | inactive: 0.95
C/C=C(\C)C(=O)OC1[C@H](OC(C)=O)C2(CO)C(CC1(C)C)C1=CCC3C4(C)CCC(O[C@@H]5O[C@H](C(=O)O)[C@@H](O[C@@H]6O[C@H](CO)[C@@H](O)[C@H](O)[C@H]6O)[C@H](O)[C@H]5O[C@H]5O[C@H](CO)[C@@H](O)[C@H](O)[C@H]5O)[C@](C)(CO)C4CCC3(C)[C@]1(C)C[C@H]2O (stereo partly specified) [Aescin] | inactive: -0.708 | inactive: -0.221 | inactive: -0.967
C=CCNc1c(O)cc2c(O)c1C[C@@H](C)C[C@H](OC)[C@H](O)[C@@H](C)/C=C(\C)[C@H](OC(N)=O)[C@@H](OC)/C=C\C=C(/C)C(=O)N2 [retaspimycin] | inactive: -1.83 | inactive: -1.08 | inactive: -1.36
O=C(O)c1ccccc1NC(=O)C12CC3CC(CC(C3)C1)C2 | inactive: -0.88 | inactive: 0.645 | inactive: -0.643
CCCCCCCCCCCC[N+](C)(C)CC(=O)O | inactive: 0.414 | inactive: -1.31 | inactive: 1.41
CCSc1nn(-c2ccc(OC)cc2)c(=O)c2c(N)scc12 | inactive: -0.576 | inactive: -0.473 | inactive: 0.715
C=C(C)[C@@H]1CC[C@]2(C(=O)O)CC[C@]3(C)[C@H](CCC4[C@@]5(C)CC[C@H](OC(=O)CCC(=O)O)C(C)(C)C5CC[C@]43C)C12 (stereo partly specified) | inactive: -1.09 | inactive: 0.524 | inactive: -0.457
[Cl][Fe]([Cl])[Cl] [Ferric Chloride] | inactive: -0.31 | – | inactive: 0.0493

Some of the entries so far, as tab-separated lines.
Compound	TEAD-luciferase reporter activity (compound concentration: 200 nM)	TEAD-luciferase reporter activity (compound concentration: 2 uM)	TEAD-luciferase reporter activity (compound concentration: 10 uM)
O=C(Cc1c(F)cccc1Cl)Nc1onc(-c2ccc(F)cc2)c1-c1ccncn1	inactive: -1.18	inactive: -1.18	inactive: -1
CCCCN1CCC(NC(=O)c2c[nH]c3ncccc23)CC1	inactive: -1.11	inactive: -2.46	inactive: -2.17

Next results:

Compound | TEAD-luciferase reporter activity (compound concentration: 200 nM) | TEAD-luciferase reporter activity (compound concentration: 2 uM) | TEAD-luciferase reporter activity (compound concentration: 10 uM)
CC(C)C[C@H](NC(=O)[C@@H](Cc1ccc2ccccc2c1)NC(=O)[C@H](Cc1ccc(O)cc1)NC(=O)[C@H](CO)NC(=O)[C@H](Cc1c[nH]c2ccccc12)NC(=O)[C@H](Cc1cnc[nH]1)NC(=O)[C@@H]1CCC(=O)N1)C(=O)N[C@@H](CCCNC(=N)N)C(=O)N1CCC[C@H]1C(=O)NCC(N)=O [Nafarelin] | inactive: -0.548 | inactive: -1.1 | inactive: 2.68
C[C@@H](O)[C@H](c1ccc2c(c1)OCO2)N1CCOCC1 [Filenadol] | inactive: -1.22 | inactive: -1.35 | inactive: -0.79
O=[N+]([O-])c1cc2c(ccc3cc(Br)ccc32)o1 | inactive: -1.3 | inactive: -1.49 | inactive: -1.11
CC(C)NCC(O)COc1cccc2c1N(C(=O)c1cccnc1)CCC2 (stereo unspecified) [Nicainoprol] | inactive: -0.587 | inactive: 0.304 | inactive: -0.308
OCCC#Cc1nc(-c2ccc(F)cc2)c(-c2ccncc2)n1CCCc1ccccc1 | inactive: -4.23 | inactive: -2.05 | inactive: 1.28
N=C(NCCCCc1ccc(OCC(O)CO)cc1)NC(=O)c1nc(Cl)c(N)nc1N (stereo unspecified) | inactive: -0.795 | inactive: -1.17 | inactive: 1.66
CC1=C2[C@H](/C=C(\C)C(=O)O)CC[C@@H](C)[C@H]2CC1 [Valerenic acid] | inactive: -0.489 | inactive: 0.378 | inactive: -0.213
CCOC(=O)COc1ccc(/C(C)=N/OCc2sc(-c3ccc(C(F)(F)F)cc3)nc2C)cc1C | inactive: -1.16 | inactive: 1.31 | inactive: -0.428
CC(=O)NCCC(=O)N[C@@H](Cc1cnc[nH]1)C(=O)O [N-Acetylcarnosine] | inactive: -1.04 | inactive: 0.169 | inactive: -0.24
Cc1c(Cl)c(C)[n+]([O-])c(Cl)c1-c1noc(-c2cc(O)c(O)c([N+](=O)[O-])c2)n1 [opicapone] | inactive: 0.496 | inactive: -0.758 | inactive: -0.639
O=C1CCC(c2ccc(-n3ccnc3)cc2)=NN1 [Imazodan] | inactive: 0.636 | inactive: -0.534 | inactive: 2.97
CC(=O)N[C@@H](Cc1ccc(C(=N)N)cc1)C(=O)N[C@H](C(=O)N[C@@H](Cc1ccc[n+](C)c1)C(=O)N[C@@H](CC(C)C)C(=O)N1CCC[C@H]1C(N)=O)C1CCCCC1 | inactive: -0.56 | inactive: -0.201 | inactive: -0.318
C[C@@H]1NC(=O)[C@@H]2CCCN2C(=O)[C@H](CC(N)=O)NC(=O)[C@@H]2CSSC[C@H](N)C(=O)N[C@H]3CSSC[C@H](NC1=O)C(=O)NC([C@@H](C)O)C(=O)NCC(=O)N[C@H](C(=O)N[C@@H](Cc1ccc(O)cc1)C(=O)O)CSSC[C@H](NC(=O)[C@H](Cc1ccc(O)cc1)NC(=O)[C@H](CCC(=O)O)NC3=O)C(=O)N2 (stereo partly specified) [Linaclotide acetate] | inactive: 0.0212 | inactive: -0.694 | inactive: 1.48
CC[C@H](C)[C@H](NC(=O)[C@H](CCC(=O)O)NC(=O)[C@H](CO)NC(=O)[C@H](CO)NC(=O)[C@@H](NC(=O)[C@H](CC(=O)O)NC(=O)[C@@H](NC(=O)[C@H](C)NC(=O)[C@H](C)NC(=O)[C@H](CC(=O)O)NC(=O)[C@H](CO)NC(C)=O)C(C)C)[C@@H](C)O)C(=O)N[C@H](C(=O)N[C@H](C(=O)N[C@@H](CCCCN)C(=O)N[C@@H](CC(=O)O)C(=O)N[C@@H](CC(C)C)C(=O)N[C@@H](CCCCN)C(=O)N[C@@H](CCC(=O)O)C(=O)N[C@@H](CCCCN)C(=O)N[C@@H](CCCCN)C(=O)N[C@@H](CCC(=O)O)C(=O)N[C@H](C(=O)N[C@H](C(=O)N[C@@H](CCC(=O)O)C(=O)N[C@@H](CCC(=O)O)C(=O)N[C@@H](C)C(=O)N[C@@H](CCC(=O)O)C(=O)N[C@@H](CC(N)=O)C(=O)O)C(C)C)C(C)C)[C@@H](C)O)[C@@H](C)O [Thymosin alpha 1] | inactive: -0.671 | – | inactive: 0.235
C=C1/C(=C\C=C2/CCC[C@]3(C)[C@@H]([C@H](C)/C=C/[C@H](C)C(C)(C)O)CC[C@@H]23)C[C@@H](O)C[C@@H]1O [Ercalcitriol] | inactive: -0.0962 | inactive: 0.38 | inactive: -0.447
COC(=O)C1=COC(C)C2CN3CCc4c([nH]c5ccccc45)C3CC12 (stereo unspecified) | inactive: 2.5 | inactive: -0.759 | inactive: 2.1
CC(=O)/N=c1/sc(S(N)(=O)=O)nn1C | inactive: 0.506 | inactive: -0.235 | inactive: -0.38
Cc1cccc(/C=N/Nc2cc(N3CCOCC3)nc(OCCc3ccccn3)n2)c1 [Apilimod] | – | inactive: 0.507 | –
Cc1cccc(/C=N/Nc2cc(N3CCOCC3)nc(OCCc3ccccn3)n2)c1 [Target 16] | inactive: -2.14 | – | inactive: -1.03
NCCCNc1ccc2c(CNCCO)nn3c4c(O)ccc(O)c4c(=O)c1c23 | inactive: -1.42 | inactive: 0.87 | active: 5.08
CNCc1ccc(CSCCN/C(=N/S(C)(=O)=O)NCC(O)c2ccc(O)cc2)o1 (stereo unspecified) | inactive: -2.36 | inactive: 0.941 | inactive: -0.0691
